{"source": "patent US8445492B2", "about": "“Method for inhibiting growth of cancer cells and cell telomere and diseases of cell proliferation by using heteroannelated anthraquinone derivative compounds” (National Defense Medical Center, priority 2008, dated 2013)", "key": {"[1]": {"system": "MDA-MB-231/ATCC", "test": "NCI DTP in-vitro dose response, Breast Cancer", "type": "cell-based"}, "[2]": {"system": "BT-549", "test": "NCI DTP in-vitro dose response, Breast Cancer", "type": "cell-based"}, "[3]": {"system": "MALME-3M", "test": "NCI DTP in-vitro dose response, Melanoma", "type": "cell-based"}, "[4]": {"system": "SK-MEL-28", "test": "NCI DTP in-vitro dose response, Melanoma", "type": "cell-based"}, "[5]": {"system": "UACC-257", "test": "NCI DTP in-vitro dose response, Melanoma", "type": "cell-based"}, "[6]": {"system": "UACC-62", "test": "NCI DTP in-vitro dose response, Melanoma", "type": "cell-based"}, "[7]": {"system": "A498", "test": "NCI DTP in-vitro dose response, Renal Cancer", "type": "cell-based"}, "[8]": {"system": "RXF 393", "test": "NCI DTP in-vitro dose response, Renal Cancer", "type": "cell-based"}, "[9]": {"system": "CCRF-CEM"}, "[10]": {"system": "RPMI-8226"}, "[11]": {"system": "SNB-75", "test": "NCI DTP in-vitro dose response, CNS Cancer", "type": "cell-based"}, "[12]": {"system": "U251", "test": "NCI DTP in-vitro dose response, CNS Cancer", "type": "cell-based"}, "[13]": {"system": "HCC-2998", "test": "NCI DTP in-vitro dose response, Colon Cancer", "type": "cell-based"}, "[14]": {"system": "HCT-15", "test": "NCI DTP in-vitro dose response, Colon Cancer", "type": "cell-based"}, "[15]": {"system": "HT29", "test": "NCI DTP in-vitro dose response, Colon Cancer", "type": "cell-based"}, "[16]": {"system": "KM12", "test": "NCI DTP in-vitro dose response, Colon Cancer", "type": "cell-based"}}, "note": "Like-named read-outs stand apart in the source and are kept apart here.", "data": [{"molecule": "CCc1nc2ccc3c(c2[nH]1)C(=O)c1ccccc1C3=O", "note": "[TABLE 4-9]", "values": [{"measurement": "Mean Optical Densities", "setting": "[1]; Log10 Concentration −4.0", "result": 0.700}, {"measurement": "Mean Optical Densities", "setting": "[1]; Log10 Concentration −5.0", "result": 0.820}, {"measurement": "Mean Optical Densities", "setting": "[1]; Log10 Concentration −6.0", "result": 1.063}, {"measurement": "Mean Optical Densities", "setting": "[1]; Log10 Concentration −7.0", "result": 1.097}, {"measurement": "Mean Optical Densities", "setting": "[1]; Log10 Concentration −8.0", "result": 1.121}, {"measurement": "Mean Optical Densities", "setting": "[2]; Log10 Concentration −4.0", "result": 1.166}, {"measurement": "Mean Optical Densities", "setting": "[2]; Log10 Concentration −5.0", "result": 1.606}, {"measurement": "Mean Optical Densities", "setting": "[2]; Log10 Concentration −6.0", "result": 1.951}, {"measurement": "Mean Optical Densities", "setting": "[2]; Log10 Concentration −7.0", "result": 2.006}, {"measurement": "Mean Optical Densities", "setting": "[2]; Log10 Concentration −8.0", "result": 2.009}]}, {"molecule": "CCc1nc2ccc3c(c2[nH]1)C(=O)c1ccccc1C3=O", "note": "[TABLE 4-5]", "values": [{"measurement": "Mean Optical Densities", "setting": "[3]; Log10 Concentration −4.0", "result": 0.683}, {"measurement": "Mean Optical Densities", "setting": "[3]; Log10 Concentration −5.0", "result": 0.835}, {"measurement": "Mean Optical Densities", "setting": "[3]; Log10 Concentration −6.0", "result": 1.153}, {"measurement": "Mean Optical Densities", "setting": "[3]; Log10 Concentration −7.0", "result": 1.161}, {"measurement": "Mean Optical Densities", "setting": "[3]; Log10 Concentration −8.0", "result": 1.174}, {"measurement": "Mean Optical Densities", "setting": "[4]; Log10 Concentration −4.0", "result": 0.211}, {"measurement": "Mean Optical Densities", "setting": "[4]; Log10 Concentration −5.0", "result": 0.537}, {"measurement": "Mean Optical Densities", "setting": "[4]; Log10 Concentration −6.0", "result": 0.730}, {"measurement": "Mean Optical Densities", "setting": "[4]; Log10 Concentration −7.0", "result": 0.762}, {"measurement": "Mean Optical Densities", "setting": "[4]; Log10 Concentration −8.0", "result": 0.794}, {"measurement": "Mean Optical Densities", "setting": "[5]; Log10 Concentration −4.0", "result": 0.506}, {"measurement": "Mean Optical Densities", "setting": "[5]; Log10 Concentration −5.0", "result": 0.694}, {"measurement": "Mean Optical Densities", "setting": "[5]; Log10 Concentration −6.0", "result": 0.808}, {"measurement": "Mean Optical Densities", "setting": "[5]; Log10 Concentration −7.0", "result": 0.761}, {"measurement": "Mean Optical Densities", "setting": "[5]; Log10 Concentration −8.0", "result": 0.763}, {"measurement": "Mean Optical Densities", "setting": "[6]; Log10 Concentration −4.0", "result": 1.015}, {"measurement": "Mean Optical Densities", "setting": "[6]; Log10 Concentration −5.0", "result": 1.231}, {"measurement": "Mean Optical Densities", "setting": "[6]; Log10 Concentration −6.0", "result": 1.874}, {"measurement": "Mean Optical Densities", "setting": "[6]; Log10 Concentration −7.0", "result": 1.978}, {"measurement": "Mean Optical Densities", "setting": "[6]; Log10 Concentration −8.0", "result": 1.844}]}, {"molecule": "CCc1nc2ccc3c(c2[nH]1)C(=O)c1ccccc1C3=O", "note": "[TABLE 4-7]", "values": [{"measurement": "Mean Optical Densities", "setting": "[7]; Log10 Concentration −4.0", "result": 0.453}, {"measurement": "Mean Optical Densities", "setting": "[7]; Log10 Concentration −5.0", "result": 0.793}, {"measurement": "Mean Optical Densities", "setting": "[7]; Log10 Concentration −6.0", "result": 1.065}, {"measurement": "Mean Optical Densities", "setting": "[7]; Log10 Concentration −7.0", "result": 1.221}, {"measurement": "Mean Optical Densities", "setting": "[7]; Log10 Concentration −8.0", "result": 1.202}]}, {"molecule": "O=C1c2ccccc2C(=O)c2c1ccc1nccnc21", "note": "[TABLE 5-7]", "values": [{"measurement": "Mean Optical Densities", "setting": "[7]; A498, Log10 Concentration −4.0", "result": 0.456}, {"measurement": "Mean Optical Densities", "setting": "[7]; A498, Log10 Concentration −5.0", "result": 0.839}, {"measurement": "Mean Optical Densities", "setting": "[7]; A498, Log10 Concentration −6.0", "result": 1.058}, {"measurement": "Mean Optical Densities", "setting": "[7]; A498, Log10 Concentration −7.0", "result": 1.034}, {"measurement": "Mean Optical Densities", "setting": "[7]; A498, Log10 Concentration −8.0", "result": 1.079}, {"measurement": "Mean Optical Densities", "setting": "[8]; RXF 393, Log10 Concentration −4.0", "result": 0.919}, {"measurement": "Mean Optical Densities", "setting": "[8]; RXF 393, Log10 Concentration −5.0", "result": 1.355}, {"measurement": "Mean Optical Densities", "setting": "[8]; RXF 393, Log10 Concentration −6.0", "result": 1.829}, {"measurement": "Mean Optical Densities", "setting": "[8]; RXF 393, Log10 Concentration −7.0", "result": 1.973}, {"measurement": "Mean Optical Densities", "setting": "[8]; RXF 393, Log10 Concentration −8.0", "result": 2.024}]}, {"molecule": "O=C1c2ccccc2C(=O)c2c1ccc1nccnc21", "note": "[TABLE 5-1]", "values": [{"measurement": "Mean Optical Densities", "setting": "[9]; Log10 Concentration −4.0", "result": 0.344}, {"measurement": "Mean Optical Densities", "setting": "[9]; Log10 Concentration −5.0", "result": 0.358}, {"measurement": "Mean Optical Densities", "setting": "[9]; Log10 Concentration −6.0", "result": 0.622}, {"measurement": "Mean Optical Densities", "setting": "[9]; Log10 Concentration −7.0", "result": 0.755}, {"measurement": "Mean Optical Densities", "setting": "[9]; Log10 Concentration −8.0", "result": 0.751}, {"measurement": "Mean Optical Densities", "setting": "[10]; Log10 Concentration −4.0", "result": 0.535}, {"measurement": "Mean Optical Densities", "setting": "[10]; Log10 Concentration −5.0", "result": 0.702}, {"measurement": "Mean Optical Densities", "setting": "[10]; Log10 Concentration −6.0", "result": 0.926}, {"measurement": "Mean Optical Densities", "setting": "[10]; Log10 Concentration −7.0", "result": 1.161}, {"measurement": "Mean Optical Densities", "setting": "[10]; Log10 Concentration −8.0", "result": 1.245}]}, {"molecule": "CCc1nc2ccc3c(c2[nH]1)C(=O)c1ccccc1C3=O", "note": "[TABLE 4-4]", "values": [{"measurement": "Mean Optical Densities", "setting": "[11]; Log10 Concentration −4.0", "result": 0.770}, {"measurement": "Mean Optical Densities", "setting": "[11]; Log10 Concentration −5.0", "result": 0.916}, {"measurement": "Mean Optical Densities", "setting": "[11]; Log10 Concentration −6.0", "result": 0.965}, {"measurement": "Mean Optical Densities", "setting": "[11]; Log10 Concentration −7.0", "result": 1.070}, {"measurement": "Mean Optical Densities", "setting": "[11]; Log10 Concentration −8.0", "result": 1.068}, {"measurement": "Mean Optical Densities", "setting": "[12]; Log10 Concentration −4.0", "result": 0.597}, {"measurement": "Mean Optical Densities", "setting": "[12]; Log10 Concentration −5.0", "result": 0.854}, {"measurement": "Mean Optical Densities", "setting": "[12]; Log10 Concentration −6.0", "result": 1.260}, {"measurement": "Mean Optical Densities", "setting": "[12]; Log10 Concentration −7.0", "result": 1.393}, {"measurement": "Mean Optical Densities", "setting": "[12]; Log10 Concentration −8.0", "result": 1.369}]}, {"molecule": "CCc1nc2ccc3c(c2[nH]1)C(=O)c1ccccc1C3=O", "note": "[TABLE 4-3]", "values": [{"measurement": "Mean Optical Densities", "setting": "[13]; Log10 Concentration −4.0", "result": 0.988}, {"measurement": "Mean Optical Densities", "setting": "[13]; Log10 Concentration −5.0", "result": 1.527}, {"measurement": "Mean Optical Densities", "setting": "[13]; Log10 Concentration −6.0", "result": 1.983}, {"measurement": "Mean Optical Densities", "setting": "[13]; Log10 Concentration −7.0", "result": 2.044}, {"measurement": "Mean Optical Densities", "setting": "[13]; Log10 Concentration −8.0", "result": 1.963}, {"measurement": "Mean Optical Densities", "setting": "[14]; Log10 Concentration −4.0", "result": 0.348}, {"measurement": "Mean Optical Densities", "setting": "[14]; Log10 Concentration −5.0", "result": 0.588}, {"measurement": "Mean Optical Densities", "setting": "[14]; Log10 Concentration −6.0", "result": 1.121}, {"measurement": "Mean Optical Densities", "setting": "[14]; Log10 Concentration −7.0", "result": 1.422}, {"measurement": "Mean Optical Densities", "setting": "[14]; Log10 Concentration −8.0", "result": 1.391}, {"measurement": "Mean Optical Densities", "setting": "[15]; Log10 Concentration −4.0", "result": 0.241}, {"measurement": "Mean Optical Densities", "setting": "[15]; Log10 Concentration −5.0", "result": 0.557}, {"measurement": "Mean Optical Densities", "setting": "[15]; Log10 Concentration −6.0", "result": 0.893}, {"measurement": "Mean Optical Densities", "setting": "[15]; Log10 Concentration −7.0", "result": 0.998}, {"measurement": "Mean Optical Densities", "setting": "[15]; Log10 Concentration −8.0", "result": 0.951}, {"measurement": "Mean Optical Densities", "setting": "[16]; Log10 Concentration −4.0", "result": 0.373}, {"measurement": "Mean Optical Densities", "setting": "[16]; Log10 Concentration −5.0", "result": 0.625}, {"measurement": "Mean Optical Densities", "setting": "[16]; Log10 Concentration −6.0", "result": 1.003}, {"measurement": "Mean Optical Densities", "setting": "[16]; Log10 Concentration −7.0", "result": 1.040}, {"measurement": "Mean Optical Densities", "setting": "[16]; Log10 Concentration −8.0", "result": 1.072}]}]}
